Laboratory results reported in publication PMC7433898.
These are yes or no findings as the source states them, for the method shown. Binding seen in cells or lysates may run through a third protein. Binding can be weak; no strength is given.

Amino acid sequences for entries named in this document (tags omitted). A change or cut given only in a name is not applied to a line headed by its entry.
UniProt Q16666: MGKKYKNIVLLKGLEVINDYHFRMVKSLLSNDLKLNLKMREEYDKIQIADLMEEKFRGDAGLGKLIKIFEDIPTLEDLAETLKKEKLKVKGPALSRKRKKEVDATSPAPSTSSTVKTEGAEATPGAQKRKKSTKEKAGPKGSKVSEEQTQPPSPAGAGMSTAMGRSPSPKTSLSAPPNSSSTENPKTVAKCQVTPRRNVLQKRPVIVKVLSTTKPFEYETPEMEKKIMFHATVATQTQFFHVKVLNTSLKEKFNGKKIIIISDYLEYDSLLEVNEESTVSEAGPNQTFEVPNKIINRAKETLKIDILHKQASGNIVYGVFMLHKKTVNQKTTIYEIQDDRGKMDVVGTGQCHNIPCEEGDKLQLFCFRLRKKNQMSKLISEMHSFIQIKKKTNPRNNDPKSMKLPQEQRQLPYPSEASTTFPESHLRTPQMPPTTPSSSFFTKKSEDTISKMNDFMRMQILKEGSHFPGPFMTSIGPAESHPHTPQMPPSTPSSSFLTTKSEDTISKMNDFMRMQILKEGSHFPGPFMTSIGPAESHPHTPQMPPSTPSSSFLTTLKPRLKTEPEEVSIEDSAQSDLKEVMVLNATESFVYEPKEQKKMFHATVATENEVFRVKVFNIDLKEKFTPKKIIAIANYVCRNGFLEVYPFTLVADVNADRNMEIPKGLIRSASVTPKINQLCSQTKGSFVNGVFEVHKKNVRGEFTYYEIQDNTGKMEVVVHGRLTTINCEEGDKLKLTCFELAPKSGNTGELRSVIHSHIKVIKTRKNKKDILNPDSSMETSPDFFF
UniProt P08047: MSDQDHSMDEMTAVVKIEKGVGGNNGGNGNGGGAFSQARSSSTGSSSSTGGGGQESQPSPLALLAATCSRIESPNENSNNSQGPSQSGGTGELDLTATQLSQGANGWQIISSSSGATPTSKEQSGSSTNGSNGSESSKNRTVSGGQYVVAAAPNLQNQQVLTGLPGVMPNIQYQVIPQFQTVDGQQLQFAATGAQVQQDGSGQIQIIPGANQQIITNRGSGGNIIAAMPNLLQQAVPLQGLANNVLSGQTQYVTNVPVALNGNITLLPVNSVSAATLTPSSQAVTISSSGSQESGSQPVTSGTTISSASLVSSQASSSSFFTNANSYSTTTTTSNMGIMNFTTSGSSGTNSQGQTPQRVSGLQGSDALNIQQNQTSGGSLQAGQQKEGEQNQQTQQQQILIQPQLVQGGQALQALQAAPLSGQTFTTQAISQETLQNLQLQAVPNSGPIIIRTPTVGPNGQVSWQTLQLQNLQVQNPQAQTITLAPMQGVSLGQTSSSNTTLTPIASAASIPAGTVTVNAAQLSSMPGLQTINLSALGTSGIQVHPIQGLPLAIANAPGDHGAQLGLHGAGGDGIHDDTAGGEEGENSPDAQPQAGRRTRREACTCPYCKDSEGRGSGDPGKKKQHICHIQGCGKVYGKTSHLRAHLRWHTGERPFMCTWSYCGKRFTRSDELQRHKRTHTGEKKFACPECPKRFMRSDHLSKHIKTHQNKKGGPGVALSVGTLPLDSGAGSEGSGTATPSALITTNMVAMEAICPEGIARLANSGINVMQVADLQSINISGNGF

target: HA-tagged IFI16 (human) (UniProt Q16666); assay: co-IP; HEK293T cotransfected with C-FLAG tagged Sp1 mutants and HA-tagged IFI16; lysates pre-cleaned with beads; IFI16 immunoprecipitated with anti-HA overnight at 4°C, beads 4 h at 4°C; anti-FLAG blot

Row | Substance | binding
1 | FLAG-tagged Sp1 with a deletion of the C-terminus (from UniProt P08047) | binds
2 | FLAG-tagged Sp1 with a deletion of the N-terminal region (from UniProt P08047) | binds
3 | FLAG-tagged Sp1 with a deletion of the Zn-finger domain (from UniProt P08047) | no binding
4 | FLAG-tagged Sp1 with a deletion of the highly charged region (from UniProt P08047) | binds
5 | FLAG-tagged Sp1 with a deletion of transactivator domain A (from UniProt P08047) | binds
6 | FLAG-tagged Sp1 with a deletion of transactivator domain B (from UniProt P08047) | binds
